# From PubChem BioAssay AID248 (DTP/NCI, 2004)
# The list is a part of this screen's results and no random one: it covers a few groups of compounds. Not every dose and run of a compound is shown. T/C: endpoint of the treated group in % of that of the vehicle group. Some doses have a count of surviving animals in place of a T/C: the source files T/C as zero there, which appears to mark a toxic dose or a test without result, not a measured value. Some survivor counts are full or nearly so, which does not show that the dose was tolerated: the source hardly ever lists a survival T/C far under the control, and the zero likely stands for such cases as well. Survivors were counted at the toxicity check, usually on the fifth day, unless a day is given; later deaths do not show. Schedule codes are those of the source, taken here to give the interval after Q, in days (D) or hours (H), and the number of doses after X. Some schedules carry Z or #; the key to these is not given. For survival time, the PubChem record calls one and a half times the control and up active, and a quarter to a half above the control has no call in these data; cut-offs in other NCI protocols can differ. Some entries hold several experiments; their values stand side by side, smallest first. Some entries show no survivor count and are marked so; the dose need not have been tolerated. Some T/C values carry the count of animals alive at the toxicity check (mostly the fifth day); without a count or a note in brackets, all were alive then.
# Tested on: L1210 leukemia ip in BDF1 mice, survival T/C
# Test: NCI In Vivo Anticancer Drug Screen. Data for tumor model L1210 Leukemia (intraperitoneal) in B6D2F1 (BDF1) mice
# Conditions: higher T/C = longer survival
# [1] = T/C endpoint: mean survival time, dose: 100.0 mg/kg/injection, schedule: Q01DX001 (ip), vehicle: Klucel (hydroxypropylcellulose) (HPC)
# [2] = T/C endpoint: mean survival time, dose: 200.0 mg/kg/injection, schedule: Q01DX001 (ip), vehicle: Klucel (hydroxypropylcellulose) (HPC)
# [3] = T/C endpoint: mean survival time, dose: 8.0 mg/kg/injection, schedule: Q01DX Z (ip), vehicle: saline
# [4] = T/C endpoint: mean survival time, dose: 16.0 mg/kg/injection, schedule: Q01DX Z (ip), vehicle: saline
# [5] = T/C endpoint: mean survival time, dose: 100.0 mg/kg/injection, schedule: Q01DX001 (ip), vehicle: saline
# [6] = T/C endpoint: mean survival time, dose: 200.0 mg/kg/injection, schedule: Q01DX001 (ip), vehicle: saline
structure (smiles),measurement,setting,value
CN(N)/C(N)=N/[N+](=O)[O-],T/C,"T/C endpoint: mean survival time, dose: 50.0 mg/kg/injection, schedule: Q01DX001 (ip), vehicle: Klucel (hydroxypropylcellulose) (HPC)",98 % of control
same,T/C,[1],114 % of control
same,T/C,[2],96 % of control
CO/C(N)=N\[N+](=O)[O-],T/C,[3],95 % of control
same,T/C,[4],96 % of control
same,T/C,"T/C endpoint: mean survival time, dose: 31.0 mg/kg/injection, schedule: Q01DX Z (ip), vehicle: saline",104 % of control
same,T/C,"T/C endpoint: mean survival time, dose: 62.0 mg/kg/injection, schedule: Q01DX Z (ip), vehicle: saline",98 % of control
same,T/C,"T/C endpoint: mean survival time, dose: 125.0 mg/kg/injection, schedule: Q01DX Z (ip), vehicle: saline",104 % of control
same,T/C,"T/C endpoint: mean survival time, dose: 250.0 mg/kg/injection, schedule: Q01DX Z (ip), vehicle: saline",101 % of control
same,survivor count,"T/C endpoint: mean survival time, dose: 500.0 mg/kg/injection, schedule: Q01DX Z (ip), vehicle: saline",0 of 6
CN(C)NP(N)(Cl)(c1ccccc1)c1ccccc1,T/C,[5],97 % of control
same,survivor count,[6],1 of 4
same,survivor count,"T/C endpoint: mean survival time, dose: 400.0 mg/kg/injection, schedule: Q01DX001 (ip), vehicle: saline",0 of 4
Cc1ccc(NC(=O)NP(=O)(Nc2ccccc2)Nc2ccccc2)nc1,T/C,"T/C endpoint: mean survival time, dose: 50.0 mg/kg/injection, schedule: Q01DX001 (ip), vehicle: alcohol",92 % of control
same,T/C,"T/C endpoint: mean survival time, dose: 100.0 mg/kg/injection, schedule: Q01DX001 (ip), vehicle: alcohol",92 % of control
same,survivor count,"T/C endpoint: mean survival time, dose: 200.0 mg/kg/injection, schedule: Q01DX001 (ip), vehicle: alcohol",0 of 4
same,survivor count,"T/C endpoint: mean survival time, dose: 400.0 mg/kg/injection, schedule: Q01DX001 (ip), vehicle: alcohol",0 of 4
CC1([N+](=O)[O-])COP(=O)(N(CCCl)CCCl)OC1 (stereo not given),T/C,"T/C endpoint: mean survival time, dose: 100.0 mg/kg/injection, schedule: Q01DX Z (ip), vehicle: carboxymethylcellulose (CMC)",109 % of control
same,survivor count,"T/C endpoint: mean survival time, dose: 200.0 mg/kg/injection, schedule: Q01DX Z (ip), vehicle: carboxymethylcellulose (CMC)",6 of 6
same,survivor count,"T/C endpoint: mean survival time, dose: 400.0 mg/kg/injection, schedule: Q01DX Z (ip), vehicle: carboxymethylcellulose (CMC)",0 of 6
same,survivor count,"T/C endpoint: mean survival time, dose: 600.0 mg/kg/injection, schedule: Q01DX Z (ip), vehicle: carboxymethylcellulose (CMC)",2 of 6
COc1cc2c(c3oc4cccc(O)c4c(=O)c13)[C@@H]1C=CO[C@@H]1O2,T/C,"T/C endpoint: mean survival time, dose: 3.75 mg/kg/injection, schedule: Q01DX009 (ip), vehicle: Klucel (hydroxypropylcellulose) (HPC)",119 % of control
same,T/C,"T/C endpoint: mean survival time, dose: 7.5 mg/kg/injection, schedule: Q01DX009 (ip), vehicle: Klucel (hydroxypropylcellulose) (HPC)",110 % of control
same,T/C,"T/C endpoint: mean survival time, dose: 15.0 mg/kg/injection, schedule: Q01DX009 (ip), vehicle: Klucel (hydroxypropylcellulose) (HPC)",138 % of control
same,T/C,"T/C endpoint: mean survival time, dose: 30.0 mg/kg/injection, schedule: Q01DX009 (ip), vehicle: Klucel (hydroxypropylcellulose) (HPC)",132 % of control
same,T/C,"T/C endpoint: mean survival time, dose: 50.0 mg/kg/injection, schedule: Q01DX001 (ip), vehicle: saline",102 % of control
same,T/C,"T/C endpoint: mean survival time, dose: 60.0 mg/kg/injection, schedule: Q01DX009 (ip), vehicle: Klucel (hydroxypropylcellulose) (HPC)",165 % of control
same,T/C,[5],107 % of control
same,T/C,[6],130 % of control
same,T/C,"T/C endpoint: median survival time, dose: 4.0 mg/kg/injection, schedule: Q01DX009 (ip), vehicle: saline",114 % of control
same,T/C,"T/C endpoint: median survival time, dose: 8.0 mg/kg/injection, schedule: Q01DX009 (ip), vehicle: saline",128 % of control [5 of 6 alive]
same,T/C,"T/C endpoint: median survival time, dose: 16.0 mg/kg/injection, schedule: Q01DX009 (ip), vehicle: saline",121 % of control
same,T/C,"T/C endpoint: median survival time, dose: 32.0 mg/kg/injection, schedule: Q01DX009 (ip), vehicle: saline",157 % of control [5 of 6 alive]
same,T/C,"T/C endpoint: median survival time, dose: 64.0 mg/kg/injection, schedule: Q01DX009 (ip), vehicle: saline",200 % of control [5 of 6 alive]
same,T/C,"T/C endpoint: median survival time, dose: 128.0 mg/kg/injection, schedule: Q01DX009 (ip), vehicle: saline",135 % of control
O=[N+]([O-])c1ccc(Sc2ccc([N+](=O)[O-])cc2[N+](=O)[O-])c([N+](=O)[O-])c1,T/C,"T/C endpoint: mean survival time, dose: 50.0 mg/kg/injection, schedule: Q01DX009 (ip), vehicle: saline with Tween-80",105 % of control [survivor count not shown]
same,T/C,[1],92 % of control [survivor count not shown]
same,T/C,"T/C endpoint: mean survival time, dose: 100.0 mg/kg/injection, schedule: Q01DX009 (ip), vehicle: saline with Tween-80",94 % of control [survivor count not shown]
same,T/C,[2],95 % of control [survivor count not shown]
same,T/C,"T/C endpoint: mean survival time, dose: 200.0 mg/kg/injection, schedule: Q01DX009 (ip), vehicle: saline with Tween-80",91 % of control [survivor count not shown]
same,T/C,"T/C endpoint: mean survival time, dose: 400.0 mg/kg/injection, schedule: Q01DX001 (ip), vehicle: Klucel (hydroxypropylcellulose) (HPC)",95 % of control [survivor count not shown]
CCSP(N)(=O)CC (stereo not given),T/C,"T/C endpoint: mean survival time, dose: 5.0 mg/kg/injection, schedule: Q01DX001 (ip), vehicle: saline",101 % of control [survivor count not shown]
same,T/C,"T/C endpoint: mean survival time, dose: 10.0 mg/kg/injection, schedule: Q01DX001 (ip), vehicle: saline",98 % of control [survivor count not shown]
COP(C)(=O)OC(N)(N)SC (stereo not given),T/C,"T/C endpoint: mean survival time, dose: 100.0 mg/kg/injection, schedule: Q04DX002 (ip), vehicle: saline",93 % of control [survivor count not shown]
same,T/C,"T/C endpoint: mean survival time, dose: 200.0 mg/kg/injection, schedule: Q04DX002 (ip), vehicle: saline",96 % of control [survivor count not shown]
same,T/C,"T/C endpoint: mean survival time, dose: 400.0 mg/kg/injection, schedule: Q04DX002 (ip), vehicle: saline",101 % of control [survivor count not shown]
CCOC(=O)NNC(=O)NP(=O)(NC(=O)NNC(=O)OCC)NC(=O)NNC(=O)OCC,T/C,"T/C endpoint: mean survival time, dose: 100.0 mg/kg/injection, schedule: Q01DX001 (ip), vehicle: carboxymethylcellulose (CMC)",98 % of control
same,T/C,"T/C endpoint: mean survival time, dose: 200.0 mg/kg/injection, schedule: Q01DX001 (ip), vehicle: carboxymethylcellulose (CMC)",88 % of control
same,T/C,"T/C endpoint: mean survival time, dose: 400.0 mg/kg/injection, schedule: Q01DX001 (ip), vehicle: carboxymethylcellulose (CMC)",90 % of control
O=C(c1ccc([N+](=O)[O-])cc1)N(CCCl)CCCl,T/C,"T/C endpoint: median survival time, dose: 100.0 mg/kg/injection, schedule: Q01DX009 (ip), vehicle: Klucel (hydroxypropylcellulose) (HPC)",111 % of control
same,T/C,"T/C endpoint: median survival time, dose: 200.0 mg/kg/injection, schedule: Q01DX009 (ip), vehicle: Klucel (hydroxypropylcellulose) (HPC)",109 % of control
same,survivor count,"T/C endpoint: median survival time, dose: 400.0 mg/kg/injection, schedule: Q01DX009 (ip), vehicle: Klucel (hydroxypropylcellulose) (HPC)",4 of 6
CCCCCCC(C)OP(O)OC(C)CCCCCC (stereo not given),T/C,"T/C endpoint: mean survival time, dose: 100.0 mg/kg/injection, schedule: Q04DX002 (ip), vehicle: Klucel (hydroxypropylcellulose) (HPC)",98 % of control
same,T/C,"T/C endpoint: mean survival time, dose: 200.0 mg/kg/injection, schedule: Q04DX002 (ip), vehicle: Klucel (hydroxypropylcellulose) (HPC)",102 % of control
same,T/C,"T/C endpoint: mean survival time, dose: 400.0 mg/kg/injection, schedule: Q04DX002 (ip), vehicle: Klucel (hydroxypropylcellulose) (HPC)",96 % of control [2 of 3 alive]
CCOP(=O)(N(CCCl)CCCl)N1CC1 (stereo not given),T/C,"T/C endpoint: mean survival time, dose: 1.0 mg/kg/injection, schedule: Q01DX Z (ip), vehicle: saline",102 % of control
same,T/C,"T/C endpoint: mean survival time, dose: 2.0 mg/kg/injection, schedule: Q01DX Z (ip), vehicle: saline",93 % of control
same,T/C,"T/C endpoint: mean survival time, dose: 4.0 mg/kg/injection, schedule: Q01DX Z (ip), vehicle: saline",93 and 104 % of control
same,survivor count,[3],6 of 6
same,survivor count,[4],4 of 6
same,survivor count,"T/C endpoint: mean survival time, dose: 32.0 mg/kg/injection, schedule: Q01DX Z (ip), vehicle: saline",0 of 6
same,survivor count,"T/C endpoint: mean survival time, dose: 62.5 mg/kg/injection, schedule: Q01DX010 (ip), vehicle: saline",4 of 6
same,survivor count,"T/C endpoint: mean survival time, dose: 64.0 mg/kg/injection, schedule: Q01DX Z (ip), vehicle: saline",0 of 6
same,survivor count,"T/C endpoint: mean survival time, dose: 125.0 mg/kg/injection, schedule: Q01DX010 (ip), vehicle: saline",0 of 6
same,survivor count,"T/C endpoint: mean survival time, dose: 250.0 mg/kg/injection, schedule: Q01DX010 (ip), vehicle: saline",0 of 6
